# Data from patent publication US20110002926A1.
# Changes are numbered by the printed parent chain. These are yes or no findings as the source states them, for the method shown. Some entries that bind do so weakly or less than the wild type.
# B1: chimeric AP33 antibody (Vh/Vl) (antibody, V domains shown)
# VH: EVQLQESGPSLVKPSQTLSLTCSVTGDSITSGYWNWIRKFPGNKLEYMGYISYSGSTYYNLSLRSRISITRDTSKNQYYLQLNSVTTEDTATYYCALITTTTYAMDYWGQGTSVTVS
# VL: NIVLTQSPVSLAVSLGQRATISCRASESVDGYGNSFLHWFQQKPGQPPKLLIYLASNLNSGVPARFSGSGSRTDFTLTIDPVEADDAATYYCQQNNVDPWTFGGGTKLEIK
# B2: RHb-h/Vl (humanized heavy chain RHb-h with chimeric AP33 light chain) (antibody, V domains shown)
# VH: QVQLQESGPGLVKPSETLSLTCTVSGDSITSGYWNWIRQPPGRALEYMGYISYSGSTYYNLSLRSRITISRDTSKNQYSLRLSSVTAADTAMYYCALITTTTYAMDYWGQGTTVTVS
# VL: B1 VL
# B3: humanized AP33 antibody RHb-h/RK2bc (antibody, V domains shown)
# VH: B2 VH
# VL: EIVLTQSPSSLSASVGDRVTITCRASESVDGYGNSFLHWFQQKPGKAPKLLIYLASNLNSGVPSRFSGSGSRTDFTLTISSLQPEDFATYYCQQNNVDPWTFGQGTKLEIK
# B4: humanized AP33 antibody RH-H/RK2bc (antibody, V domains shown)
# VH: B2 VH with L97R
# VL: B3 VL
# B5: humanized AP33 antibody RH-F/RK2bc (antibody, V domains shown)
# VH: B2 VH with R71V
# VL: B3 VL
# B6: humanized AP33 antibody RH-G/RK2bc (antibody, V domains shown)
# VH: B2 VH with Y78F
# VL: B3 VL
# B7: AP33 RH-E/RK2bc (antibody, V domains shown)
# VH: B2 VH with I67V
# VL: B3 VL
# B8: AP33 RH-D/RK2bc (antibody, V domains shown)
# VH: B2 VH with M48I
# VL: B3 VL
# B9: humanized AP33 antibody RH-C/RK2bc (antibody, V domains shown)
# VH: QVQLQESGPGLVKPSETLSLTCTVSGDSITSGYWNWIRQPPGRALEWMGYISYSGSTYYNLSLRSRITISRDTSKNQYSLRLSSVTAADTAMYYCALITTTTYAMDYWGQGTTVTVSS
# VL: B3 VL
# B10: AP33 RH-B/RK2bc (antibody, V domains shown)
# VH: B9 VH with T30S, W47Y
# VL: B3 VL
# B11: RHA/Vl (humanized heavy chain RHA with chimeric AP33 light chain) (antibody, human IgG1, V domains shown)
# VH: B2 VH with T30S, Y47W, M48I, I67V, R71V, Y78F, L97R
# VL: B1 VL
# B12: Vh/RK2bc (antibody, V domains shown)
# VH: B1 VH
# VL: B3 VL
# B13: humanized AP33 antibody RHA/RK2bc (antibody, human IgG1, V domains shown)
# VH: B2 VH with T30S, Y47W, M48I, I67V, R71V, Y78F, L97R
# VL: B3 VL
# B14: humanized AP33 antibody RHI/RK2bc (antibody, human IgG1, V domains shown)
# VH: B2 VH with Q39K
# VL: B3 VL
# B15: RHI/Vl (humanized heavy chain RHI with chimeric AP33 light chain) (antibody, human IgG1, V domains shown)
# VH: B2 VH with Q39K
# VL: B1 VL
# Biological target: E2 peptide B1
# Assay: peptide ELISA, biotinylated peptide on streptavidin, COS7 supernatant, OD 655 nm
row,Binder,binding
1,B1,binds

# Biological target: Peptide D3
# Assay: as above
row,Binder,binding
1,B1,binds
2,B2,binds
3,B3,binds
4,B4,binds
5,B5,binds
6,B6,binds
7,B7,binds
8,B8,binds
9,B9,binds
10,B10,binds

# Biological target: E2 peptide G3
# Assay: as above
row,Binder,binding
1,B1,binds
2,B3,binds
3,B4,binds
4,B5,binds
5,B6,binds
6,B7,binds
7,B8,binds
8,B9,binds
9,B10,binds

# Biological target: E2 peptide C2
# Assay: as above
row,Binder,binding
1,B1,binds
2,B8,binds
3,B9,binds
4,B10,binds

# Biological target: peptide H6 (AP33 mimotope)
# Assay: as above
row,Binder,binding
1,B1,binds
2,B2,binds
3,B11,binds
4,B3,binds
5,B12,binds
6,B4,binds
7,B5,binds
8,B6,binds
9,B7,binds
10,B8,binds
11,B9,binds
12,B13,binds
13,B10,binds

# Biological target: E2 peptide B1
# Assay: peptide ELISA, signal as percent of maximum H6 binding
row,Binder,binding
1,B1,binds

# Biological target: Peptide D3
# Assay: as above
row,Binder,binding
1,B1,binds
2,B3,binds
3,B4,binds
4,B5,binds
5,B6,binds
6,B7,binds
7,B8,binds
8,B9,binds
9,B10,binds

# Biological target: E2 peptide G3
# Assay: as above
row,Binder,binding
1,B1,binds
2,B3,binds
3,B4,binds
4,B5,binds
5,B6,binds
6,B7,binds
7,B8,binds
8,B9,binds
9,B10,binds

# Biological target: E2 peptide C2
# Assay: as above
row,Binder,binding
1,B1,binds
2,B8,binds
3,B9,binds
4,B10,binds

# Biological target: E2 peptide G3
# Assay: peptide ELISA, COS7 supernatants, heavy chain paired with RK2bc
row,Binder,binding
1,B9,binds

# Biological target: E2 peptide C2
# Assay: as above
row,Binder,binding
1,B9,binds

# Biological target: peptide H6 (AP33 mimotope)
# Assay: peptide ELISA, COS7 supernatants
row,Binder,binding
1,B1,binds
2,B2,binds
3,B14,binds
4,B11,binds
5,B3,binds
6,B13,binds
7,B15,binds

# Biological target: peptide H6 (AP33 mimotope)
# Assay: peptide ELISA, biotinylated peptide on streptavidin, COS7 supernatant
row,Binder,binding
1,B1,binds
2,B2,binds
3,B14,binds
4,B15,binds
